Binding data for two substances are collected here from publication doi:10.1101/2024.01.10.574971.

Protein sequences, listed by entry. Tags and fused reporters are not part of them.
UniProt Q16665: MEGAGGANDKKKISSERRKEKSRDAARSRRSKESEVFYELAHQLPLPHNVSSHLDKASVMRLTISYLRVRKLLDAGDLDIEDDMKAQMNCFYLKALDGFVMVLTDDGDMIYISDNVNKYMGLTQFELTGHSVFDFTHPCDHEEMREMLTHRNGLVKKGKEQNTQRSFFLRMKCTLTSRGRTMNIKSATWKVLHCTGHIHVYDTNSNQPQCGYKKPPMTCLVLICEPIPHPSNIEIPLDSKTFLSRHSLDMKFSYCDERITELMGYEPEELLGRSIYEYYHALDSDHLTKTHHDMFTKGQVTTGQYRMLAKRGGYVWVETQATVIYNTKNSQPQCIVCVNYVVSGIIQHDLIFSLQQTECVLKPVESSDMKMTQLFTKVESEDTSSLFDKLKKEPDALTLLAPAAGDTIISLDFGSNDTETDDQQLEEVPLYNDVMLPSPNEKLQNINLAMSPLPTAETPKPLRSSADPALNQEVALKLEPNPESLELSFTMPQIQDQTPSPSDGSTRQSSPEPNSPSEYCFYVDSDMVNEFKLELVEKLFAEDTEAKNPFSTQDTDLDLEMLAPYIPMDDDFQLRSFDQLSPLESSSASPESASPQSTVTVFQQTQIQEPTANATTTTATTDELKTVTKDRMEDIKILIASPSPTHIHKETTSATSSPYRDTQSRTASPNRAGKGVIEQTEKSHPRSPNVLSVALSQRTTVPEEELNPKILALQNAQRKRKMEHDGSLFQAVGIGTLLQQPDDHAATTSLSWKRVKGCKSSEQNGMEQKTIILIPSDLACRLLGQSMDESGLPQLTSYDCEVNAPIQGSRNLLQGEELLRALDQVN
UniProt Q99814: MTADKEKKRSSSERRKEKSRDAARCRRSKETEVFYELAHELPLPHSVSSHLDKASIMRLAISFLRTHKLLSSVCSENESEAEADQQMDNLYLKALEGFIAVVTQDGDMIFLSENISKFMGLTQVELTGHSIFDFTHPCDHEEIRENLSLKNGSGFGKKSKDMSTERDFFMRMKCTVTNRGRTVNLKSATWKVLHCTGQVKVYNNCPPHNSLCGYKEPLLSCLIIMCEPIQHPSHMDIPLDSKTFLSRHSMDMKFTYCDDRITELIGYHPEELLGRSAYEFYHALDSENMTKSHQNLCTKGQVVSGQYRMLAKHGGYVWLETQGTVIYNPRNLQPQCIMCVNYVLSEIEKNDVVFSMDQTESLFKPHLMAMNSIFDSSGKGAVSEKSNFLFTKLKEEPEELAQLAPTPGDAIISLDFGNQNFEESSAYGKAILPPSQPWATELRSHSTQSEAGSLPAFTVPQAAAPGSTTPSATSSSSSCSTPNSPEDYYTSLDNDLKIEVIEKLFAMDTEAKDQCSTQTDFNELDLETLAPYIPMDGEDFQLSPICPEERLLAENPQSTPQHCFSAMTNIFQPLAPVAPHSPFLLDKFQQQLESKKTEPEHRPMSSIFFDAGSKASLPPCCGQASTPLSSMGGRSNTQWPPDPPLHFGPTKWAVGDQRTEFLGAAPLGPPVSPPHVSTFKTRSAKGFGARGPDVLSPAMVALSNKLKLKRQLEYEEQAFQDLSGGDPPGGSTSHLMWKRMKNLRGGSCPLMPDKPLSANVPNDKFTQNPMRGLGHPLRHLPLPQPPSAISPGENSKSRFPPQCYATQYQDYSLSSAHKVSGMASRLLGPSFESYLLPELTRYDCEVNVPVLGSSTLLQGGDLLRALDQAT

In the experiment the target is T1, USP43 (endogenous) (human (endogenous in HeLa)) (UniProt Q70EL4).
T1 sequence: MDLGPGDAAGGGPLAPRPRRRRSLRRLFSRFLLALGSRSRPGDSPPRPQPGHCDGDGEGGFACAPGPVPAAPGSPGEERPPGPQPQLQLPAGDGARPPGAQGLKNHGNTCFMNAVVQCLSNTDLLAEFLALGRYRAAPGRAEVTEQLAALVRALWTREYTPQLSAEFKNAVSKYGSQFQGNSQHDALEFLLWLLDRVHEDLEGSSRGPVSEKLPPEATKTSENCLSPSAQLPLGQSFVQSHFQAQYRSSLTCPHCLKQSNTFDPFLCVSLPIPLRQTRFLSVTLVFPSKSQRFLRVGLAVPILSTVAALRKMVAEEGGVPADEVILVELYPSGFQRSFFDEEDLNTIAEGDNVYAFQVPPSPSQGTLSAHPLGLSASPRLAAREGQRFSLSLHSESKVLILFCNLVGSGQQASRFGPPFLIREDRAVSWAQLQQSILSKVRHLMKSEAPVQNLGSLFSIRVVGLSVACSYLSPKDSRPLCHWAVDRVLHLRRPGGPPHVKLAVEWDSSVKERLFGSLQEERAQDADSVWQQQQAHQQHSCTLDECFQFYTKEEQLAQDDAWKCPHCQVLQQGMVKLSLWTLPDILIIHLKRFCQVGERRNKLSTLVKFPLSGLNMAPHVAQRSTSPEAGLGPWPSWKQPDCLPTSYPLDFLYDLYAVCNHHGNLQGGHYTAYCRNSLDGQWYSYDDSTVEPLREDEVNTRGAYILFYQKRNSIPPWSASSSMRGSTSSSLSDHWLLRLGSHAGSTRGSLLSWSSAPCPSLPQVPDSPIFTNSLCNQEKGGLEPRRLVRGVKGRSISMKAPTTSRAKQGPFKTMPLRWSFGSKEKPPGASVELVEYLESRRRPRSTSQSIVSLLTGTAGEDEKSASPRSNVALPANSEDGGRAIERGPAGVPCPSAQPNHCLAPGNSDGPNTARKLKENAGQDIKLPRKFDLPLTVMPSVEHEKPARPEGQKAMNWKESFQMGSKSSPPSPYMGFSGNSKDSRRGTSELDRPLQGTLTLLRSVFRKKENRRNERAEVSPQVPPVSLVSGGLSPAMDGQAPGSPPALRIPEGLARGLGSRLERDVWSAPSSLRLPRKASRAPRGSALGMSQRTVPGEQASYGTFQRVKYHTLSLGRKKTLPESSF
Description: co-IP.

Results are given in words; binding and its absence hold for the method and conditions named. In cells and extracts the contact can be indirect. Some binding calls cover weakened binding; strength is not graded here.

With “HIF-1α (endogenous) (from UniProt Q16665 1-826)”, the binding entry is “binds”.
As for “HIF-2α (endogenous) (from UniProt Q99814 1-870)”, the entry is “no binding”.
